In patent US20220033904A1:

Assays:
[1] = target: T1, USP8 (UniProt P40818); experiment: co-IP with TMEM79 overexpressed or knocked out (FIG. 11D, 11E)
T1 sequence (looked up): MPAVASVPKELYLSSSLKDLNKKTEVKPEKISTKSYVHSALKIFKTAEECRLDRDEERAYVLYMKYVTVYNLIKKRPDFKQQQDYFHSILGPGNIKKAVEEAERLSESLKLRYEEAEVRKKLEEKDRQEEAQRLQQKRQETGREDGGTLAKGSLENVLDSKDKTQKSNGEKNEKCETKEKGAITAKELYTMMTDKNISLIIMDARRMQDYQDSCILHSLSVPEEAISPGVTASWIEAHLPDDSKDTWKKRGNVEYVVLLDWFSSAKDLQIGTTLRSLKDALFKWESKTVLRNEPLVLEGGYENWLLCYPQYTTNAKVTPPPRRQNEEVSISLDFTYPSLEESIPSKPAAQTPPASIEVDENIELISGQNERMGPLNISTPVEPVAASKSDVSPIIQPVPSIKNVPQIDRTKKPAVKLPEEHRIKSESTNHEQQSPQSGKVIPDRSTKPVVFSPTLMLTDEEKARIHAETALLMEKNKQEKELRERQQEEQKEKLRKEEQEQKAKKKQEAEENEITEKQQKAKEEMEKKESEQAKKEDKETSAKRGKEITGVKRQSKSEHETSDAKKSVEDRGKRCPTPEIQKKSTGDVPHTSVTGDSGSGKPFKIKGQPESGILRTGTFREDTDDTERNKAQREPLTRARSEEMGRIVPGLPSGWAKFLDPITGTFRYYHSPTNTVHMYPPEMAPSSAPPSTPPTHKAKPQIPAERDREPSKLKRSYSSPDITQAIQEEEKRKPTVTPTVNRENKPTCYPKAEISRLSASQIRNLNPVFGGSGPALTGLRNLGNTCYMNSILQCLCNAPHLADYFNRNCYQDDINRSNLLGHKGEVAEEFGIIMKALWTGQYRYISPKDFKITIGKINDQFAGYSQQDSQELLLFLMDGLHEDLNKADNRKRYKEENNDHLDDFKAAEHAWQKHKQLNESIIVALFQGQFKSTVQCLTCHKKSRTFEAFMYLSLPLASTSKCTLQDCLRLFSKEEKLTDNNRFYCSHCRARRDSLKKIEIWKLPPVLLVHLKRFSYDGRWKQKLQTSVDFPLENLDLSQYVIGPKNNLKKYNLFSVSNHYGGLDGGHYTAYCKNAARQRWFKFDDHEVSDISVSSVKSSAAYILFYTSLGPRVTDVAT

[2] = target: T1, USP8; experiment: co-IP in TMEM79 knockout cells; also unaffected by TMEM79 overexpression (FIG. 11D, 11E)

binding [1]: binds
binding [2]: binds
Substance: FZD5 (receptor)

No constants are given. Whether binding was seen depends on the method and setting. In cells and extracts the contact can be indirect. Binding calls can cover weak binding; strength is not graded here.
